Primary screen of a compound library

Sequences of proteins named here, by UniProt entry; tags and fusion partners are left off.
UniProt E9BF75, entry or part of it: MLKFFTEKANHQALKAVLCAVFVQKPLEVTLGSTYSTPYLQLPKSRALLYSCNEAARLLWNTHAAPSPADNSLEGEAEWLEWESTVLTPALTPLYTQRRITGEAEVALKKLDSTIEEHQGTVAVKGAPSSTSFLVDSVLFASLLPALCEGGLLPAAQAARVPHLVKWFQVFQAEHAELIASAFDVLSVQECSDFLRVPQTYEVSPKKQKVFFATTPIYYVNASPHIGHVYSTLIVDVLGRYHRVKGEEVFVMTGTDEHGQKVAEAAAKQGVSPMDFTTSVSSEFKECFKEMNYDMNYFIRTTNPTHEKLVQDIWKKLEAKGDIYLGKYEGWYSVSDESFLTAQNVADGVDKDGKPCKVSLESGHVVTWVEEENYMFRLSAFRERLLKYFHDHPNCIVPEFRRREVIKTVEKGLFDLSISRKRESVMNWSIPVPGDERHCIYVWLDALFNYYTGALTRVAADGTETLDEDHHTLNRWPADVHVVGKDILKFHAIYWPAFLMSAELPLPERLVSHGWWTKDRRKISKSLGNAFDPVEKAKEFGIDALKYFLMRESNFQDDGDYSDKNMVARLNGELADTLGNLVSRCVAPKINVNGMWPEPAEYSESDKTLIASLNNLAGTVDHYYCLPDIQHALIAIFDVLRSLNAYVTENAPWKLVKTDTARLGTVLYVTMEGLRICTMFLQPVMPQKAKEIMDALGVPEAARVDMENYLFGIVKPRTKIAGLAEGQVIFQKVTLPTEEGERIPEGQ

Measurements from “University of Dundee, Small-Polar-MMV Screening Library” (2021), ChEMBL document CHEMBL3988442.

A: 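Assay on Mycobacterium tuberculosis, filed only as a heat shock assay from Cornell; the read-out is not stated. The concentration is filed as 10 mM, unlikely as a test dose, so the dose is not known. Higher reads as stronger inhibition (inferred: compounds with an IC50 in retests scored well above the rest). Size under these conditions: about 69,000 compounds, about 930 of them at 50% or above in at least one test.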
B: 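Primary screen of methionyl-tRNA synthetase; the read-out is not stated. Target: Methionyl-tRNA synthetase (putative), Leishmania donovani (UniProt E9BF75). The test concentration is not given. Values are per cent inhibition. Size under these conditions: about 68,000 compounds, about 24 of them at 50% or above in at least one test.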
C: 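Whole-cell assay for inhibitors of Mycobacterium tuberculosis growth, labelled Cornell in the record; the read-out is not stated. The concentration is filed as 10 mM, unlikely as a test dose, so the dose is not known. The record gives no direction; compounds strong in two other growth screens of this library score well above the rest, so higher reads as stronger inhibition. Of about 53,000 compounds tested this way, about 900 (1.7%) reached 50% or more in at least one test.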

All values are in %.
How 0% and 100% were set is not recorded. Most values in the screen are low, and negative values occur.
The compounds are a random part of those screened.

* O=C(Cc1csc(-c2ccco2)n1)N1CCCC1Cn1cccn1 (configuration not stated) : A: -12.03%; B: 18.79%; C: -0.165%
* CC(C)NC(=O)NC[C@@]1(COc2cnccn2)C[C@@H](O)[C@@H](O)C1.Cl : A: -10.07%; C: -20.2%
* CCc1nnc2sc(-c3cc(C(C)C)n[nH]3)nn12 : A: -5.695%; B: 13.28%; C: -59.74%
* CNC(=O)c1cn[nH]c1C1CCCN1C(=O)c1cccnc1 (configuration not stated) : A: 9.725%; B: 6.431%; C: -1.109%
* Cc1cccc(C(=O)N2CCCC2)c1NCC(=O)NC1(C#N)CCCC1 : A: -3.891%; B: -0.5013%; C: -9.818%
* COc1cc(NC2CCS(=O)(=O)C2)ncn1 (configuration not stated) : A: -31.52%; B: 18.05%; C: 14.11%
* N#CCCCS(=O)(=O)NC(=O)c1cccc(Cl)c1F : A: -12.72%; B: 0.8357%; C: -6.121%
* CC(C)CCN1C(=O)C2(NC(=O)c3ccccc3O2)c2ccccc21 (configuration not stated) : A: 22.25%; B: 16.71%; C: 40.69%
* Cc1nc(CCNC(=O)NCC(c2ccco2)N(C)C)cs1 (configuration not stated) : A: 10.47%; B: 17.53%; C: 3.986%
* CC(C)NC(=O)N(Cc1cc(O)nc2ccccc12)C(C)C : A: -8.593%; B: 3.763%; C: -13.85%
* Cc1noc(CC2CCN(Cc3ccc(CCC(C)(C)O)cc3)CC2)n1 : A: -37.32%; B: 15.82%; C: 11.63%
* Cc1nn(C)c(Cl)c1CNCCOc1ccc2c(c1)OCO2 : A: -14.81%; B: 6.806%; C: -41.62%
* Cc1cccc(C)c1OCCCN1CCN(CC2CCCO2)CC1 (configuration not stated) : A: -33.88%; B: 12.2%; C: -23%
* O=C(Cn1nc2c(cc1=O)CCCC2)N[C@@H](C(=O)O)c1ccccc1 : A: -18.16%; B: 7.884%
* CC(C)C(=O)NCc1cccc(N2CCCCC2=O)c1 : A: -11.82%; B: 13.89%
* Cc1ccc(NS(=O)(=O)c2cccc(C#N)c2)c(CN(C)C)c1 : A: 4.899%; B: 12.41%; C: 2.08%
* COCCN1CCc2c(cnc(-c3ccccc3)c2C(=O)O)C1.O=C(O)C(F)(F)F : A: -9.252%; C: 6.899%
* O=C(O)c1c(-c2ccoc2)ncc2c1CCN(C1CCOC1)C2 (configuration not stated) : B: 11.23%
* Cc1ccsc1C(=O)N1CCCC(c2[nH]ncc2S(C)(=O)=O)C1 (configuration not stated) : A: -0.9246%; B: 4.941%
* CN(CCn1ccc2ccccc21)C(=O)Cc1nnn[nH]1 : A: -11%; B: 9.946%; C: -25.21%
* Cn1ncc(Cl)c1C(=O)N1CCC(c2nnsc2S(C)(=O)=O)CC1 : A: -21.53%; B: 9.006%; C: -27.02%

The first 2 entries again:

{"structure": "O=C(Cc1csc(-c2ccco2)n1)N1CCCC1Cn1cccn1", "stereo": "configuration not stated", "A": -12.03, "B": 18.79, "C": -0.165}
{"structure": "CC(C)NC(=O)NC[C@@]1(COc2cnccn2)C[C@@H](O)[C@@H](O)C1.Cl", "A": -10.07, "C": -20.2}